Reference: PubChem BioAssay AID2685 (National Center for Advancing Translational Sciences (NCATS), 2010)
The list shows a part of the results. These are further read-outs of the screen, such as a control signal, another cell line or another target. No call is given for them. Compounds called inactive in the main read-out are mostly missing here. The note in brackets gives the kind of curve behind each potency; many fits are weak.

Experiment: qHTS Assay for Lipid Storage Modulators in Drosophila S3 Cells;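 as to cell number change: cells counted by Cell Tracker Red CMTPX staining in the red channel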
Details: BODIPY lipid droplet fluorescence, 18-24 h; for cell number change: measured here: cell count max response, cells fed with added oleic acid
Method in brief: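 Drosophila S3 cells loaded with oleic acid (400 uM, as added) and compounds at several concentrations; lipid droplets imaged by 488-nm laser-scanning cytometry, 500–530 nm intensity and object ratio to cell channel. Percent activity normalized to 20 uM Triacsin C.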

[1] = measured here: cell number channel AC50, cells fed with added oleic acid
[2] = measured here: lipid fluorescence (Fed channel) AC50, cells fed with added oleic acid

| SMILES | cell number change [%] | AC50 [1] | AC50 [2] |
| --- | --- | --- | --- |
| CC(C)(C)c1csc(SCC(=O)Nc2ccc(Cl)cn2)n1 | -55.5 | 18.4 µM [falling, partial curve] | 14.6 µM [falling, partial curve, poor fit] |
| Cc1cc(S(=O)(=O)NCC(c2ccc(F)cc2)N2CCN(C)CC2)ccc1F (stereo not given) | 1.35 |  | 0.651 µM [falling, single point] |
| Cc1ccnc(SCCn2c(N3CC(C)CC(C)C3)nc3c2c(=O)n(C)c(=O)n3C)n1 (stereo not given) | -17.2 | 0.146 µM [rising, full curve, poor fit] |  |
| COc1cccc(-c2cccc(NC(=O)C3CCN(Cc4cccc(C)n4)CC3)c2)c1 | 24.9 |  | 29.1 µM [rising, single point] |
| Cc1nc2c(-c3ccc(F)cc3)c(C)nn2c(C)c1CCC(=O)N1CCN(c2ccccn2)CC1 | -1.76 |  | 20.6 µM [falling, single point] |
| COc1ccc(CC(=O)NNC(=O)c2cc(C)oc2C)cc1OC | -6.81 |  | 0.731 µM [rising, single point] |
| CCOc1ccccc1CN1CCN(Cc2ccc3cccc(OC)c3n2)CC1CCO (stereo not given) |  |  | 0.731 µM [rising, partial curve, poor fit] |
| CCC1=Nc2cc(C(=O)NCCN3CCOCC3)ccc2Sc2ccc(C)cc21 | -16.3 |  |  |
| Oc1c(Cl)cc(Cl)cc1C1Nc2ccccc2-n2cccc21 (stereo not given) | -34.8 | 32.6 µM [falling, single point] | 6.51 µM [falling, full curve, poor fit] |
| COc1ccccc1NC1=C(Cl)C(=O)N(C2CCCCC2)C1=O | 4.14 |  |  |
| CC(C)[C@@H](C(=O)N[C@@H](C(=O)O)c1ccccc1)N1C(=O)N2CCc3c([nH]c4ccccc34)[C@@]2(C)C1=O | 11.6 |  | 10.3 µM [rising, partial curve, poor fit] |
| N#CC1=C2N=C(N)c3ccccc3N2C2=C(C(=O)CCC2)C1c1ccc(F)cc1 (stereo not given) | 17.5 | 0.00517 µM [rising, full curve, poor fit] |  |
| Cc1cc(C)n(-c2nc(NCCCN(C)C)c3c4c(sc3n2)CCCC4)n1 | 3.86 |  |  |
| CCCC(=O)Nc1ccc2c(c1)Cc1ccccc1-2 | -15.9 |  | 23.1 µM [rising, single point] |
| S=C(Nc1ccccc1Cl)N(Cc1ccccc1)Cc1ccccn1 | -3.64 |  | 2.31 µM [falling, single point] |
| CCC(C)(C)c1ccc(Oc2cccc(C(=O)O)c2)cc1 | -7.44 |  | 3.66 µM [falling, single point] |
| CC(=O)Oc1ccc(C(=O)Nc2cccc(C(=O)c3cccc(NC(=O)c4ccc(OC(C)=O)cc4)c3)c2)cc1 | 94.1 | 29.1 µM [rising, single point] | 20.6 µM [rising, partial curve] |
| COc1ccc(C2(c3ccc(OC)cc3)NC(=O)N(CC(=O)NC(C)C)C2=O)cc1 | 11.4 |  |  |
| OCCNc1nc2ccccc2n1CC(O)c1ccccc1 (stereo not given) | 14.3 | 1.3 µM [rising, full curve] |  |
| O=C(NCc1ccc(F)c(F)c1)C1CCC(=O)N(CCc2ccccc2)C1 (stereo not given) | 28.5 |  | 29.1 µM [rising, single point] |

| SMILES | cell number change [%] | AC50 [1] | AC50 [2] |
| --- | --- | --- | --- |
| O=C(NCC1CCCO1)c1cnn2c1NC(c1ccccc1)CC2C(F)(F)F (stereo not given) | 12.4 |  | 3.66 µM [rising, partial curve, poor fit] |
| O=C(c1n[nH]c2ccccc12)N1CCN(S(=O)(=O)c2ccc(Cl)cc2)CC1 | 2.6 | 6.51 µM [falling, single point] | 6.51 µM [falling, single point] |
| CC(C)C1NC2(C(=O)c3ccccc3C2=O)C2C(=O)N(c3ccc(F)cc3)C(=O)C12 (stereo not given) | -32.8 |  | 29.1 µM [falling, single point] |
| CCCCN(C(=O)CCC(=O)Nc1cc(C)on1)C(C(=O)NC1CCCC1)c1ccccc1OCC (stereo not given) | -2.63 | 0.58 µM [falling, full curve, poor fit] |  |
| CN(C)S(=O)(=O)c1ccc(Cl)c(C(=O)OCC(=O)NC(=O)NC2CCCC2)c1 | -11.3 |  |  |
| Cc1ccc(S(=O)(=O)NCCCCCC(=O)Nc2nccs2)cc1 | -7.34 |  | 0.146 µM [rising, partial curve, poor fit] |
| COc1ccc(NC(=O)COC(=O)c2c(C)noc2C)c(OC)c1 | 85.2 | 8.2 µM [rising, partial curve] | 4.61 µM [rising, single point] |
| Cc1cc(C)c(OCC(=O)Nc2ccc(NC(=O)c3ccco3)cc2)c([N+](=O)[O-])c1 | -2.48 |  |  |
| Cc1ccc(C(=O)CCC2CCCC2=O)cc1 (stereo not given) | 18.3 |  |  |
| Cc1ccc(NC(=O)C2CC(Cl)=CCC2C(=O)O)c([N+](=O)[O-])c1 (stereo not given) | 0.249 |  |  |
| CCOc1ccc(NC(=O)CC)cc1 | -9.24 | 0.651 µM [rising, partial curve, poor fit] |  |
| CN(C)S(=O)(=O)c1cccc(C(=O)NC2CCSc3ccccc32)c1 (stereo not given) | -5.95 |  | 0.411 µM [rising, single point] |
| Cc1ccc(CN(C)C(=O)C2CCCN2C(=O)c2cccs2)o1 (stereo not given) | 5.17 |  | 0.0517 µM [falling, full curve] |
| S=C(Nc1ccc(Oc2ccccc2)cc1)N1CCOCC1 | 33.3 | 1.03 µM [rising, full curve, poor fit] |  |
| CNC(=S)N1CCC(NC(=O)c2ccco2)CC1 | -9.77 |  | 29.1 µM [falling, single point] |
| Cc1ccc(S(=O)(=O)N2[C@@H](c3ccccc3F)C(C(=O)O)=CC[C@H]2c2ccc(Cl)c(Cl)c2)cc1 | -48 | 20.6 µM [falling, single point] |  |
| COc1ccc(OCC(=O)OCCN(C)C)cc1 | -34.5 | 0.00517 µM [falling, full curve, poor fit] |  |
| Cc1occc1-c1nnc(SCC(=O)N2CC(=O)Nc3ccccc32)n1CC(C)C | 7.8 |  |  |
| FC(F)(F)c1cnc(C(c2ccccc2)c2ncn[nH]2)c(Cl)c1 (stereo not given) | -19.1 | 0.13 µM [falling, full curve, poor fit] | 0.13 µM [falling, full curve, poor fit] |
| Fc1ccc(-c2cnn3c(-c4cccs4)ccnc23)cc1 | -24.4 | 0.164 µM [rising, full curve, poor fit] |  |

Limited to cell number change [%] (2 entries from above):
SMILES	cell number change [%]
CCCCN(C(=O)CCC(=O)Nc1cc(C)on1)C(C(=O)NC1CCCC1)c1ccccc1OCC (stereo not given)	-2.63
COc1ccc(OCC(=O)OCCN(C)C)cc1	-34.5

Continuation.

| SMILES | cell number change [%] | AC50 [1] | AC50 [2] |
| --- | --- | --- | --- |
| CC1CN(C(=O)COC(=O)c2cc(S(N)(=O)=O)c(Cl)cc2Cl)CC(C)O1 (stereo not given) | 27.8 |  |  |
| COc1ccc(OCc2nnc(SCC(=O)N(C)Cc3ccccc3)n2N)cc1 | 16.6 |  | 29.1 µM [falling, single point] |
| CCc1ccc(CNC(=O)CCc2cn(C)c3ccccc23)cc1 | 2.84 | 4.11 µM [rising, single point] | 0.103 µM [rising, full curve, poor fit] |
| CCO/N=C/c1ccc(OC)c(Oc2nc(OC)cc(OC)n2)c1 | 22.8 |  | 7.31 µM [rising, partial curve] |
| COCCN(Cc1cc2ccc(C)cc2[nH]c1=O)S(=O)(=O)c1ccccc1 | -23.7 | 0.092 µM [falling, full curve, poor fit] |  |
| COCC(=O)Nc1cc([N+](=O)[O-])ccc1OC | 11.6 |  | 6.51 µM [rising, partial curve, poor fit] |
| CC1CC2(CCCC2)N(C(=O)N(C)C)c2ccc(F)cc21 (stereo not given) | 14.1 |  | 4.11 µM [rising, single point] |
| CCN1CCN(C(=O)c2cc3c(s2)-c2c(C)cccc2OC3)CC1 | 14.7 |  | 4.11 µM [falling, single point] |
| Cc1ccc(Cc2nnc(SCC(=O)Nc3c(C)cccc3C)[nH]c2=O)cc1 |  |  | 29.1 µM [rising, single point] |
| NS(=O)(=O)c1ccc(NC(=S)N2CCN(Cc3ccc(Cl)c(Cl)c3)CC2)cc1 | -13.3 |  | 32.6 µM [falling, partial curve, poor fit] |
| O=C(NCc1cccnc1)c1ccc(S(=O)(=O)N2CCCCCC2)cc1 | 65.8 | 29.1 µM [rising, single point] |  |
| Cc1cccc(NC(=O)COc2cccc3c2CCN(C)C3=O)c1 | -22 |  | 0.82 µM [rising, full curve] |
| COc1c(Br)cc(Br)cc1/C=N/n1c(C)nnc1C | 22.7 | 0.82 µM [rising, full curve, poor fit] |  |
| CCOC(=O)C(=Nc1ccc(Cl)cc1)NO | 3 |  | 1.3 µM [falling, full curve] |
| N#CCC(=O)Nc1ccc(C(=O)OCC(=O)Nc2ccccc2Sc2ccccc2)cc1 | 65 | 29.1 µM [rising, single point] | 0.00461 µM [rising, full curve, poor fit] |
| CC(C(=O)Nc1ccc2c(c1)OCO2)N1CCC(N2CCCCC2)CC1 (stereo not given) | 17.9 |  | 4.11 µM [rising, full curve] |
| CC(=O)Nc1c(I)c(C(=O)N[C@H]2C(O)O[C@H](CO)[C@@H](O)[C@@H]2O)c(I)c(N(C)C(C)=O)c1I (stereo not given in full) |  |  | 18.4 µM [rising, single point] |
| Cc1ccccc1C1=NC(C(F)(F)F)(C(F)(F)F)c2c(n(C)c(=O)n(C)c2=O)N1 | 20.5 |  | 3.66 µM [rising, full curve] |
| CCCn1c(=N)n(CC(=O)c2ccc(Cl)c(Cl)c2)c2ccccc21 | 16.7 |  | 10.3 µM [falling, partial curve] |
| COc1ccc(CCCc2nnc(SCC(=O)NN)o2)c(C)c1 | 18.7 |  | 4.11 µM [rising, full curve] |
